Record: PubChem BioAssay AID1259308 (NCATS, 2017)
The whole screen tested about 59,000 reagents; shown is a random part of them. About 1,510 of them (2.6%) count as active. 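Calls use total luciferase alone and ignore viability, so some active siRNAs may act by altering cell number.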 The numbers tell different reagents against one gene apart. Further read-outs or replicates are left out here.

Screen: 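Genes whose loss raises luciferase production in HEK293 cells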 (primary screen)
Cell system: human HEK293 embryonic kidney cells stably expressing firefly luciferase (HEK-CMV-Luc2-Hygro)
Knock-down reagent: single siRNA against human genes, 0.8 pmol siRNA per well
Duration: 72 h
Read-out: 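Reporter luminescence and viable-cell signal on separate replicate plates, given as percent of non-targeting control and median/MAD z-scores, plus per-cell luciferase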
Direction: total luciferase, z-score: higher = more reporter protein produced
Hit rule: 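An siRNA counts as active if its total luciferase robust z-score exceeds 3; genes with two or more such siRNAs out of three were retested with fresh siRNAs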
Meaning of the calls: active = raised luciferase; inactive = no rise

| gene symbol | reagent | total luciferase, z-score | Outcome |
| --- | --- | --- | --- |
| MRPS22 | 1 | 0.136 | inactive |
| MRPS22 | 2 | -0.758 | inactive |
| MRPS22 | 3 | 1.63 | inactive |
| DNAAF19 | 1 | -0.894 | inactive |
| DNAAF19 | 2 | -0.596 | inactive |
| DNAAF19 | 3 | 0.576 | inactive |
| PTAR1 | 1 | 1.39 | inactive |
| PTAR1 | 2 | -1.75 | inactive |
| PTAR1 | 3 | -1.97 | inactive |
| AP4E1 | 1 | 0.286 | inactive |
| AP4E1 | 2 | 0.358 | inactive |
| AP4E1 | 3 | -0.825 | inactive |
| CST11 | 1 | 2.02 | inactive |
| CST11 | 2 | -1.42 | inactive |
| CST11 | 3 | 0.143 | inactive |
| PEX11G | 1 | 1.87 | inactive |
| PEX11G | 2 | -0.765 | inactive |
| PEX11G | 3 | 2.12 | inactive |
| HNRNPH2 | 1 | 0.86 | inactive |
| HNRNPH2 | 2 | 3.25 | active |
| HNRNPH2 | 3 | -0.0592 | inactive |
| FRMD5 | 1 | 0.0405 | inactive |
| FRMD5 | 2 | -0.402 | inactive |
| FRMD5 | 3 | 0.251 | inactive |
| PITPNM2 | 1 | 0.0463 | inactive |
| PITPNM2 | 2 | -2.16 | inactive |
| PITPNM2 | 3 | 0.794 | inactive |
| BARHL1 | 1 | 1.9 | inactive |
| BARHL1 | 2 | 0.68 | inactive |
| BARHL1 | 3 | -0.211 | inactive |
| LOC145845 | 1 | -0.0913 | inactive |
| LOC145845 | 2 | -0.733 | inactive |
| LOC145845 | 3 | 0.836 | inactive |
| RTKN | 1 | 0.204 | inactive |
| RTKN | 2 | -2.22 | inactive |
| RTKN | 3 | 0.607 | inactive |
| VARS1 | 1 | -0.0416 | inactive |
| VARS1 | 2 | 4.65 | active |
| VARS1 | 3 | 2.95 | inactive |
| DDIT4L | 1 | -0.351 | inactive |
| DDIT4L | 2 | 0.68 | inactive |
| DDIT4L | 3 | 1.28 | inactive |
| C19orf53 | 1 | 0.423 | inactive |
| C19orf53 | 2 | 2.12 | inactive |
| C19orf53 | 3 | 0.353 | inactive |
| PCGF2 | 1 | 0.441 | inactive |
| PCGF2 | 2 | -0.0258 | inactive |
| PCGF2 | 3 | 2.6 | inactive |
| SEC11B | 1 | 0.189 | inactive |
| SEC11B | 2 | -1.69 | inactive |
| SEC11B | 3 | 0.291 | inactive |
| OR51V1 | 1 | -0.0416 | inactive |
| OR51V1 | 2 | -0.342 | inactive |
| OR51V1 | 3 | 0.539 | inactive |
| PLCG2 | 1 | -1.59 | inactive |
| PLCG2 | 2 | -0.228 | inactive |
| PLCG2 | 3 | -0.0558 | inactive |
| TMEM185A | 1 | 0.198 | inactive |
| TMEM185A | 2 | 1.96 | inactive |
| TMEM185A | 3 | 0.0726 | inactive |
| OR52R1 | 1 | -0.316 | inactive |
| OR52R1 | 2 | -0.22 | inactive |
| OR52R1 | 3 | -0.903 | inactive |
| WBP2 | 1 | 1.14 | inactive |
| WBP2 | 2 | -0.232 | inactive |
| WBP2 | 3 | -0.225 | inactive |
| SEC14L4 | 1 | -0.912 | inactive |
| SEC14L4 | 2 | 0.696 | inactive |
| SEC14L4 | 3 | -1.3 | inactive |
| PACC1 | 1 | -0.999 | inactive |
| PACC1 | 2 | -0.461 | inactive |
| PACC1 | 3 | 1.86 | inactive |
| PPIC | 1 | -0.4 | inactive |
| PPIC | 2 | -0.606 | inactive |
| PPIC | 3 | -0.609 | inactive |

Part of the list above, reformatted.
PTAR1 #2
- total luciferase, z-score: -1.75
- Outcome: inactive

PTAR1 #3
- total luciferase, z-score: -1.97
- Outcome: inactive

AP4E1 #1
- total luciferase, z-score: 0.286
- Outcome: inactive

AP4E1 #2
- total luciferase, z-score: 0.358
- Outcome: inactive

AP4E1 #3
- total luciferase, z-score: -0.825
- Outcome: inactive

CST11 #1
- total luciferase, z-score: 2.02
- Outcome: inactive

CST11 #2
- total luciferase, z-score: -1.42
- Outcome: inactive
